Source: PMC10163288
The other results are listed elsewhere or left out.

B1: il2ra_site1_1z92_sap_14_mot_HHH_b2_00990_000000082_0001_45_58_H_._HHH_b2_07870_af2_0001_0000600070_0000001_0_0001_af2pred_0001_af2pred_swapped (protein)
chain: SSSSSSERFARQVVKILVKLANLSEEQEEELEKLAEELVKRGYSWREISKILNELAARLDSSSSS
B2: il2ra_site2_2erj_normal_mot_HHH_b1_07204_000000037_0001_41_57_H_._HHH_b2_03327_af2_0001_0000400027_0000001_0 (protein)
chain: SSSDREERAEEVVERLVRELGLNELAERFLERNAEFAIEAGASPEEIERSLEESAKIIAEAQSSS
B3: il2ra_site2_3nfp_normal_mot_HHH_b1_04960_000000149_0001_23_39_H_._HHH_b2_01567_af2_0001_0001300067_0000001_1 (protein)
chain: SSSSDEEAEELLEEAKELLKDERLAEEAEEALLRAAALAAQEGDFELFAEIVELMEEVARSSSSS
B4: il2ra_site1_3nfp_sap_11_mot_HHH_b1_07644_af2_000000110_0001_40_57_H_._HHH_b2_03307_0001_0000500025_0000001_0_0001_af2pred_0001_af2pred_1 (protein)
chain: SEEEREEVEELLRKVDPEAVEIFRRVIELIERLGDPALKFALESVLRAAKRDPETAARLLRRLMK
B5: il2ra_site2_3nfp_normal_mot_b35798fd3694cae0124b3072f1761b69_0001_1_000000048_0001_36_50_H_._ea668602291a2ecc16ad0111e2d152a8_0001_0001_0000100004_0000001_0 (protein)
chain: SIEEILEELIEKVANVPPERAKELLEEFERAAGTPEAVLRILLRFAEFLGDPEVARALERLLKET
B6: il2ra_site2_3nfp_normal_mot_HHH_b1_00660_af2_000000090_0001_40_57_H_._HHH_b2_03957_0001_0000100002_0000001_0_af2pred_0001_af2pred (protein)
chain: SSSSDVEEQVRELLKEAEELLERGNPEEAKEVLEEAALLAIEARDFELFALINELIEKVLGSSSS
B7: il2ra_site2_3nfp_sap_20_mot_HHH_b2_08245_000000023_0001_41_55_H_._HHH_b2_07710_0001_0000200007_0000001_0_0001 (protein)
chain: DVYEELEEKAEEAARKQDPELAAEVIDLASENPEAWEKLRKVLRELNTILELYRLALEWYRKAQS
B8: il2ra_site2_3nfp_sap_27_mot_HHH_b1_06797_000000164_0001_24_40_H_._HHH_b2_04633_0001_0000200035_0000001_0_0001 (protein)
chain: SSSSDEEREELYELLEELFRLINEGDDEKFRKLEKRLEELAKELRSPHVEKAVERAEEEFHSSSS
B9: il2ra_site1_1z92_normal_mot_HHH_b1_02043_af2_000000156_0001_1_14_H_._HHH_b1_03493_af2_0001_0000100003_0000001_0_af2pred_0001_af2pred (protein)
chain: SSSSSDEELLKEAEELLEEAKHADAQELFELAELLNELAKKAEDDEVFEEIAKIFRKLVSSSSSS
B10: il2ra_site1_3nfp_sap_7_mot_HHH_b2_00857_af2_000000076_0001_1_16_H_._HHH_b1_07967_0001_0000100005_0000001_0_0001_1 (protein)
chain: SSSSSDAVEIARRVSELLKEAAKVSEEEVERLLEEAKELAKEANDPQAERLIEDAERIIRSSSSS
B11: il2ra_site1_1z92_sap_14_mot_HHH_b2_03734_000000087_0001_38_51_H_._HHH_b1_07590_0001_0000100003_0000001_0_0001 (protein)
chain: PPVEEALEIARELGDPDLVEVLEWLLRALERDPNDKAVEYLVENLYRTLKRDPEAASKQAKKFLR
B12: il2ra_site2_3nfp_sap_25_mot_HHH_b1_04762_000000120_0001_42_54_H_._e25eb812683db3a1eee71c331fe53a14_0001_af2_0001_0000100004_0000001_0_0001_af2pred_0001_af2pred (protein)
chain: SRELSQRILELLERGDPVAYALATLLAAVLHEGDPRLKELLEQALEALERGNPEEAKEIVRRALS
B13: il2ra_site1_2b5i_normal_mot_f5ff40796168375b462bec8614a1db4a_0001_1_000000138_0001_53_65_H_._HHH_b1_00383_af2_0001_0000200009_0000001_0_af2pred_dldesign_0_af2pr … (protein)
chain: SSSSSDLPELAQELFDEAKRLLEEGKKEEAYKLLRLARRVARKGGDEELIAEIEKLLKELESSSS
B14: il2ra_site2_2erj_normal_mot_HHH_b2_00732_af2_000000006_0001_23_40_H_._HHH_b2_05430_0001_0000500016_0000001_0 (protein)
chain: SSSSYEELREVMELLAEALRAAWEGDPELVRELLEEAKRLAEEANNEDLEEVIEEAERYLRSSSS
B15: il2ra_site1_2b5i_normal_mot_22370d59370c406a0c205a431f537cfa_0001_af2_000000027_0001_1_31_H_._HHH_b2_07439_af2_0001_0000100009_0000001_0 (protein)
chain: SSSDNEEIREITKIVWRLRFEFNLSKEQAQELARLAAELLDRGISVEEIEKILEELAEELGSSSS
B16: il2ra_site1_1z92_sap_9_mot_HHH_b2_02761_000000226_0001_1_18_H_._d3190f16c0c9ad810059a204378775c7_0001_af2_0001_0000100002_0000001_0_0001 (protein)
chain: DVERFIEFLERKGRVSPEKIAKSLAAFVRIAERKSPEAAETFEEDLEELSKTDPIAQLALELLRR
B17: il2ra_site1_3nfp_sap_6_mot_HHH_b1_07880_af2_000000062_0001_1_16_H_._HHH_b2_02959_0001_0000500040_0000001_0_0001 (protein)
chain: SSSSSDIEERIRELLEEAKEISDPREALRLFREALRLAARAQDPELERLVFEAVRAMAGSSSSSS
B18: il2ra_site2_3nfp_normal_mot_HHH_b2_08209_000000146_0001_1_18_H_._HHH_b1_00160_0001_0000200018_0000001_0 (protein)
chain: SSSSSTEEERERVEELLEEAKEITDPEERKELLAEATQIAYEANDFELFALVADVVFELLSSSSS
B19: il2ra_site1_3nfp_normal_mot_HHH_b1_05523_000000054_0001_1_19_H_._HHH_b1_08043_af2_0001_0000300027_0000001_0_af2pred_0001_af2pred (protein)
chain: SSSSNLRERIEELIRQAHELFKRGDEEEARKLLEEALELAEELGSRLARRFIEVALKIAHSSSSS
B20: il2ra_site1_1z92_normal_mot_01209686ea234b34325f918445e6eade_0001_af2_000000154_0001_18_33_H_._76fe7993c3ad9ffb2b2ee76f24d0ea53_0001_0001_0000100010_0000001_0_a … (protein)
chain: SLEEKLEEIKKLGVPPELVELFRKLFRAAEESGIPPEDVLRVLEDAAERDNDPELKEVIELVAET
B21: il2ra_site1_3nfp_normal_mot_HHH_b1_05523_000000027_0001_1_19_H_._HHH_b2_04834_af2_0001_0000200023_0000001_0 (protein)
chain: SSSSNEAEELFRLLRLAYELLKRGDEEEAEKVLEEAIKLAEERNNESAKRSLEKALEQIENSSSS
B22: il2ra_site1_2b5i_normal_mot_HHH_b1_06833_000000207_0001_1_19_H_._7f70b108f67073d46d85893f1d3c3336_0001_af2_0001_0000100003_0000001_0_af2pred_dldesign_0_af2pred (protein)
chain: SLEDIAEAAEEADDKDLLDLAVRAYYLAQKNPSLKERLLELVTRLARGEIAPEEAKRRLSELALE
B23: il2ra_site2_2erj_sap_24_mot_HHH_b1_05499_000000145_0001_23_39_H_._53fd09b27b213caabe775bb65887bf95_0001_0001_0000500019_0000001_0_0001_af2pred_0001_af2pred (protein)
chain: DDAELAELMVKIAAERHNVPSVEVEVHNGELHVTVEGDDEAARRLAERARFAARALGLPYEVTVE
B24: il2ra_site1_3nfp_sap_9_mot_HHH_b1_07334_af2_000000146_0001_22_37_H_._HHH_b1_08366_af2_0001_0000400010_0000001_0_0001_af2pred_0001_af2pred_1 (protein)
chain: SSSSDEEALRRIEELLKEAAKIEDPEEAREVAEEALELAEEAGNERLARKLRRDLEAIERSSSSS

target: il2ra, P01589; assay: yeast display titration

Apparent Kd, inactive:
B1 no binding seen
B2 no binding seen
B3 no binding seen
B4 no binding seen
B5 no binding seen
B6 no binding seen
B7 no binding seen
B8 no binding seen
B9 no binding seen
B10 no binding seen
B11 no binding seen
B12 no binding seen
B13 no binding seen
B14 no binding seen
B15 no binding seen
B16 no binding seen
B17 no binding seen
B18 no binding seen
B19 no binding seen
B20 no binding seen
B21 no binding seen
B22 no binding seen
B23 no binding seen
B24 no binding seen

A section from further up, for reference:
Apparent Kd, inactive:
B18 no binding seen
B19 no binding seen
